In US20080176814, “DNA-BASED APTAMERS FOR HUMAN CATHEPSIN G” (GENTIUM SPA, published 2008) one finds binding result and Kd data, which are given here for two sequences.

For this series, the target named is T1, Cathepsin G (Homo sapiens) (UniProt P08311).
T1 sequence (looked up, limits assumed): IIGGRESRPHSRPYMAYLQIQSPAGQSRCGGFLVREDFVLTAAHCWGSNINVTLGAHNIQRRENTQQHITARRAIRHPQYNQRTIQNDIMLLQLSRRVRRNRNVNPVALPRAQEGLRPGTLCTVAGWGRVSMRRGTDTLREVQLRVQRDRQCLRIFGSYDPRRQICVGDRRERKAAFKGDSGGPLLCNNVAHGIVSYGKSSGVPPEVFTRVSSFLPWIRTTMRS
As to the kind of experiment: binding assay. The conditions noted are these: purified native protein.

A weaker result is weaker than the reference pair of the same experiment. Protein sequences can lack the tags named with them. Construct, isoform or probe ends are uncertain for at least one entry.

Take “CAACGTGTGATATGTGGGTATACGCTTGGGTGTTACGCTGAGCACAGAGGGTATTCGTGT (double strand) [double stranded CG51]”: the binding result (affinity chromatography, lower affinity than single-stranded CG51, variant of CG51 (=CG43)) is reported as “binds more weakly”.

A word on the Kd: it is the equilibrium constant for the complex coming apart. A high value points to a looser complex. Sequence “CAACGTGTGATATGTGGGTATACGCTTGGGTGTTACGCTGAGCACAGAGGGTATTCGTGT [CG51 (=CG43)]” yielded a Kd (affinity chromatography on Sepharose SP, 30 mM Tris pH 7.5, 150 mM NaCl, 5 mM KCl, 5 mM MgCl2, on ice, single-stranded DNA) of 0.9 nM.
